Among all 140,000 compounds or so, about 4,300 (3.1%) were called active. This list was built around the results that the source calls inconclusive (neither active nor inactive); the mix of calls is not that of the screen.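 The calls were made as follows: active = readout at or below -70, meaning at least 70% loss of cells showing the perinucleolar compartment, a nuclear body marking cancer cells; inconclusive = readout between -30 and a set limit; inactive = the rest.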
Test: High Content Assay for Compounds that inhibit the Assembly of the Perinucleolar Compartment;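 also: plate controls were DMSO wells for no effect and camptothecin positive control wells for full effect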
Settings: PC3M PTB-GFP, PNC prevalence imaging, 16 h; at 10 µM; active compounds read low
Summary of the method: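 Compounds are pinned in duplicate onto adhered PC3M cells stably expressing GFP-tagged PTB and incubated 16 h at 37 C. Cells are then fixed, nuclei stained with Hoechst, and PNC-positive cells counted.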
In the case of `COCC(=O)N(C)C1(c2nnnn2CCOC(=O)Nc2ccc(Cl)cc2)CCCC1`, the activity change (PNC), negative = inhibition is reported as inconclusive: -59.9%.
In the case of `Cc1onc(-c2ccccc2)c1C(=O)Nc1sc2c(c1C#N)CCC2`, the activity change (PNC), negative = inhibition is reported as inactive: 25.5%.
For `COc1cc(C2C(C(=O)c3ccc(C)o3)=C(O)C(=O)N2c2cc(C)on2)ccc1O` (stereo unspecified), the activity change (PNC), negative = inhibition was inconclusive: -45.8%.
For `Cc1ccc(C(C(=O)NC2CCCCC2)N2CCCC2)cc1` (stereo unspecified), the activity change (PNC), negative = inhibition was active: -112%.
With `CCCC(=O)Nc1c2c(nn1-c1ccc(OC)cc1)CS(=O)C2` (stereo unspecified) the activity change (PNC), negative = inhibition was inconclusive: -39.3%.
With `CCCOc1cccc(C(=O)NC(=S)Nc2cccc(C(F)(F)F)c2)c1` the activity change (PNC), negative = inhibition was inconclusive: -31.8%.
With `C=CCn1c(SC(C)C(=O)NC2(C#N)CCCCC2)nnc1-c1ccc(OC)cc1` (stereo unspecified) the activity change (PNC), negative = inhibition was inconclusive: -39.2%.
For `O=C(Cn1c(COc2ccccc2)nc2ccccc21)Nc1cc(Cl)cc(Cl)c1`, the activity change (PNC), negative = inhibition was active: -100%.
For `COc1cccc(C2NC(CC(C)C)(C(=O)O)C3C(=O)N(Cc4ccccc4)C(=O)C23)c1O` (stereo unspecified), the activity change (PNC), negative = inhibition was inconclusive: -54.9%.
With `COc1ccc(-c2cc(C(=O)NCCN3CCOCC3)c3ccccc3n2)c(OC)c1` the activity change (PNC), negative = inhibition was inconclusive: -50.6%.
With `Cc1ccc(S(=O)(=O)C2CS(=O)(=O)CC2O)cc1` (stereo unspecified) the activity change (PNC), negative = inhibition was inconclusive: -31.4%.
In the case of `COc1cc(OC)c(/C=N/NC(=O)c2ccc([N+](=O)[O-])cc2)cc1Br`, the activity change (PNC), negative = inhibition is reported as inconclusive: -33.3%.
In the case of `O=C1CCC/C(=N/NC(=O)c2ccc(CN3c4cccc5cccc(c45)S3(=O)=O)cc2)C1`, the activity change (PNC), negative = inhibition is reported as inconclusive: -30.2%.
In the case of `Cc1cccc(-n2ncc3c(Nc4ccc(F)cc4)ncnc32)c1`, the activity change (PNC), negative = inhibition is reported as inactive: 27.2%.
In the case of `CCOC(=O)c1cc(C(=O)OCC)c(=O)[nH]c1C`, the activity change (PNC), negative = inhibition is reported as inactive: 16.2%.
For `CC(C)(O)C#Cc1ccc(C(=O)N2CCC(C(N)=O)(N3CCCCC3)CC2)cc1`, the activity change (PNC), negative = inhibition was inconclusive: -65.8%.
In the case of `S=C(NC1CCCC1)N1CCN(c2ccccn2)CC1`, the activity change (PNC), negative = inhibition is reported as inactive: -15%.
For `CN(C1CCCCC1)S(=O)(=O)c1ccc(C(=O)O)cc1`, the activity change (PNC), negative = inhibition was inconclusive: -69%.
With `C/C(=N\O)C(=O)C(CN1CCCCC1)CN1CCCCC1` the activity change (PNC), negative = inhibition was inconclusive: -37.6%.
With `O=c1c(/C=N/Nc2ccccc2)c(Sc2nnnn2-c2ccccc2)nc2ccccn12` the activity change (PNC), negative = inhibition was inactive: 13.2%.
With `CC1CCN(C(=O)C2CCC(CNS(=O)(=O)c3cccc4cccnc34)CC2)CC1` (stereo unspecified) the activity change (PNC), negative = inhibition was inconclusive: -41.5%.
With `Cc1cc(NC(=O)CCCC(=O)N(CC(=O)NC2CCCCC2)c2ccccc2)no1` the activity change (PNC), negative = inhibition was inconclusive: -32.8%.
In the case of `Cn1c(=O)c2sccc2n2c(CCCC(=O)NCc3ccc4c(c3)OCO4)nnc12`, the activity change (PNC), negative = inhibition is reported as active: -100%.
In the case of `Cc1ccccc1NC1=NC(C)(C)N=C(N)N1`, the activity change (PNC), negative = inhibition is reported as inconclusive: -34.1%.
For `Cc1cc(C)c2c(-n3cccc3)c(C(=O)NNS(=O)(=O)c3ccccc3)sc2n1`, the activity change (PNC), negative = inhibition was inactive: -15.2%.
For `c1ccc(-c2nc(-c3ccco3)cs2)nc1`, the activity change (PNC), negative = inhibition was active: -100%.
In the case of `N#Cc1c(/N=C/c2cccs2)sc2c1CCCCC2`, the activity change (PNC), negative = inhibition is reported as inconclusive: -45.1%.
For `CC(C)(C)c1ccc(C2CC2C(=O)N/N=C\c2cc3ccccc3nc2Cl)cc1` (stereo unspecified), the activity change (PNC), negative = inhibition was inconclusive: -33.9%.
For `Cc1nn(Cc2ccccc2)c(C)c1NC(=O)CCC(=O)O`, the activity change (PNC), negative = inhibition was inconclusive: -57%.
With `Cc1ccc(-c2cnn(-c3cccc([N+](=O)[O-])c3)c2N)cc1` the activity change (PNC), negative = inhibition was active: -87.2%.
With `COc1cc(C2NC(=S)NC(C)=C2C(=O)OC(C)C)ccc1OC(C)C` (stereo unspecified) the activity change (PNC), negative = inhibition was inactive: -22.8%.
In the case of `O=C1c2cccc3cc(Br)cc(c23)C(=O)N1Nc1ccc(Br)cc1`, the activity change (PNC), negative = inhibition is reported as inconclusive: -38.2%.
With `COC(=O)C1Cc2c([nH]c3ccccc23)C(C)N1` (stereo unspecified) the activity change (PNC), negative = inhibition was active: -91.2%.
In the case of `CC1CC(C)CN(C(=O)c2ccccc2Nc2ccc(SC(F)F)cc2)C1` (stereo unspecified), the activity change (PNC), negative = inhibition is reported as inactive: 48.1%.
With `Cc1ccc(Nc2ccc(-n3ccnc3)nn2)cc1C` the activity change (PNC), negative = inhibition was inconclusive: -71.8%.
In the case of `COc1ccc(CNC(=O)c2cc3c(C)nc4ccccc4c3o2)c(OC)c1`, the activity change (PNC), negative = inhibition is reported as inactive: -17.8%.
In the case of `COc1cccc(C(c2c(NC(=O)c3ccccc3)sc(C)c2C)N2CCN(C)CC2)c1` (stereo unspecified), the activity change (PNC), negative = inhibition is reported as inconclusive: -36.9%.
In the case of `CCCC(=O)NC(c1ccc(OC)c(OC)c1)c1c(O)ccc2ccccc12` (stereo unspecified), the activity change (PNC), negative = inhibition is reported as inconclusive: -31.7%.
In the case of `Clc1ccc(-c2nc(Cc3ccccc3)no2)cc1`, the activity change (PNC), negative = inhibition is reported as inconclusive: -35.6%.
With `COc1ccc(S(=O)(=O)Nc2cccc(N(C)S(C)(=O)=O)c2)cc1Br` the activity change (PNC), negative = inhibition was inactive: 22.9%.
With `O=C1CC(c2cccc(Br)c2)c2cc3c(cc2N1)CCC3` (stereo unspecified) the activity change (PNC), negative = inhibition was inconclusive: -73.2%.
In the case of `Cc1cc(N2C(=O)C(O)=C(C(=O)c3cccs3)C2c2cccc(O)c2)no1` (stereo unspecified), the activity change (PNC), negative = inhibition is reported as inconclusive: -46.4%.
With `CCN(CC(=O)NC1CCCCCC1)S(=O)(=O)c1ccccc1` the activity change (PNC), negative = inhibition was active: -80.3%.
With `O=[N+]([O-])c1ccc(NC(=S)N/C(=N/CS(=O)(=O)c2ccccc2)c2ccccc2)cc1` the activity change (PNC), negative = inhibition was inconclusive: -46.5%.
In the case of `CC(C)(C)c1ccc(OCc2ccc(C(=O)N/N=C/c3ccc([N+](=O)[O-])cc3)o2)cc1`, the activity change (PNC), negative = inhibition is reported as inconclusive: -36.5%.
With `CC(=O)Nc1ccc(NC(=O)COC(=O)c2c(C)nn(-c3ccccc3)c2C)cc1` the activity change (PNC), negative = inhibition was active: -82.9%.

Source: PubChem BioAssay AID2417 (National Center for Advancing Translational Sciences (NCATS), 2010)
